Results taken from publication PMC4652184.
Results are given in words; binding and its absence hold for the method and conditions named. Binding seen in cells or lysates may run through a third protein. Some results given as binding are weak or reduced against the parent protein; the word gives no strength.

By UniProt entry, the sequences of proteins in these tests, tags left out. Residues count along the entry.
UniProt Q9Y6N7, residues 26-1651: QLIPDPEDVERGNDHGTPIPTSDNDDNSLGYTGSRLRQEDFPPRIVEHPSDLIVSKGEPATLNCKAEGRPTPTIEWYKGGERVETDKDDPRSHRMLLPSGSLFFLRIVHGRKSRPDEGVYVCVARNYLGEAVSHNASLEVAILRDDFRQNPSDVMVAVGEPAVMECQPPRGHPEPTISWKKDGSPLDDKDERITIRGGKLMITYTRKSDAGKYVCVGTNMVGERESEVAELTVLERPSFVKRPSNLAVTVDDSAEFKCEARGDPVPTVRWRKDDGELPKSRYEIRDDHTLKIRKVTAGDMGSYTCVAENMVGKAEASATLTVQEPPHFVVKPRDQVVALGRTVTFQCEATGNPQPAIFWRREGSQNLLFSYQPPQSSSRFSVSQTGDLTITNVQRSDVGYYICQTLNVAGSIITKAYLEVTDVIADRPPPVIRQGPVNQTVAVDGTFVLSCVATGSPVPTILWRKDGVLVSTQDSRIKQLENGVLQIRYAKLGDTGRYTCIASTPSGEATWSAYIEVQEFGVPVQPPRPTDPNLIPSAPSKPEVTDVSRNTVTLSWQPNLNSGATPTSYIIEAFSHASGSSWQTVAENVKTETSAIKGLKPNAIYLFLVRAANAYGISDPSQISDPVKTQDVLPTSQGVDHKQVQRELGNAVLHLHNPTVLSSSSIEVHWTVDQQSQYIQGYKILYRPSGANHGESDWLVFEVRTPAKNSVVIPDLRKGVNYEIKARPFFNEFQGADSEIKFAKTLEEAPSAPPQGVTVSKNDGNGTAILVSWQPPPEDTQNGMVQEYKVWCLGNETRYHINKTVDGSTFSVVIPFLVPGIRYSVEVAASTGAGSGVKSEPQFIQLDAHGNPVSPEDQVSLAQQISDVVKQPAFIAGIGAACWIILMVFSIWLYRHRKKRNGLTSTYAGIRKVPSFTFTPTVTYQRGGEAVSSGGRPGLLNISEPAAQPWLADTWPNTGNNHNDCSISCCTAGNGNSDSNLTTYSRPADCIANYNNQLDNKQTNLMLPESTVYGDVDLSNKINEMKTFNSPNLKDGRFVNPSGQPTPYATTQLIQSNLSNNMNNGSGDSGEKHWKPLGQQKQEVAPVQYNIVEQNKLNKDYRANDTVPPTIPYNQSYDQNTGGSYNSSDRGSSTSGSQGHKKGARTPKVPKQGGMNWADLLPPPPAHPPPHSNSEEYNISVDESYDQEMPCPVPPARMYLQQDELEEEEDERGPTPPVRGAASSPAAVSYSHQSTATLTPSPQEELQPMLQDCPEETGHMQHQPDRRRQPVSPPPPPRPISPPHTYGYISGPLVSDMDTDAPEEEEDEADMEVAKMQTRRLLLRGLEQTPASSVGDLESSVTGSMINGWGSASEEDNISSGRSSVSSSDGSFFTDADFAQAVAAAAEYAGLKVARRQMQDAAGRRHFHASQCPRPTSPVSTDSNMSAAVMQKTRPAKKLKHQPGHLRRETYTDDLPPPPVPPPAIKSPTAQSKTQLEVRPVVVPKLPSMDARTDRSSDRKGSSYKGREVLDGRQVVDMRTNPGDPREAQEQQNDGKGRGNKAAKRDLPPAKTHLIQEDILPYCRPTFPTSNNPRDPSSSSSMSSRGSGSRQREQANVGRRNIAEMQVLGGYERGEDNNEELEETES

Biological target: T1, Flightless-1 (Fli1) (human (endogenous in monocyte-derived dendritic cells)) (UniProt Q13045)
T1 sequence: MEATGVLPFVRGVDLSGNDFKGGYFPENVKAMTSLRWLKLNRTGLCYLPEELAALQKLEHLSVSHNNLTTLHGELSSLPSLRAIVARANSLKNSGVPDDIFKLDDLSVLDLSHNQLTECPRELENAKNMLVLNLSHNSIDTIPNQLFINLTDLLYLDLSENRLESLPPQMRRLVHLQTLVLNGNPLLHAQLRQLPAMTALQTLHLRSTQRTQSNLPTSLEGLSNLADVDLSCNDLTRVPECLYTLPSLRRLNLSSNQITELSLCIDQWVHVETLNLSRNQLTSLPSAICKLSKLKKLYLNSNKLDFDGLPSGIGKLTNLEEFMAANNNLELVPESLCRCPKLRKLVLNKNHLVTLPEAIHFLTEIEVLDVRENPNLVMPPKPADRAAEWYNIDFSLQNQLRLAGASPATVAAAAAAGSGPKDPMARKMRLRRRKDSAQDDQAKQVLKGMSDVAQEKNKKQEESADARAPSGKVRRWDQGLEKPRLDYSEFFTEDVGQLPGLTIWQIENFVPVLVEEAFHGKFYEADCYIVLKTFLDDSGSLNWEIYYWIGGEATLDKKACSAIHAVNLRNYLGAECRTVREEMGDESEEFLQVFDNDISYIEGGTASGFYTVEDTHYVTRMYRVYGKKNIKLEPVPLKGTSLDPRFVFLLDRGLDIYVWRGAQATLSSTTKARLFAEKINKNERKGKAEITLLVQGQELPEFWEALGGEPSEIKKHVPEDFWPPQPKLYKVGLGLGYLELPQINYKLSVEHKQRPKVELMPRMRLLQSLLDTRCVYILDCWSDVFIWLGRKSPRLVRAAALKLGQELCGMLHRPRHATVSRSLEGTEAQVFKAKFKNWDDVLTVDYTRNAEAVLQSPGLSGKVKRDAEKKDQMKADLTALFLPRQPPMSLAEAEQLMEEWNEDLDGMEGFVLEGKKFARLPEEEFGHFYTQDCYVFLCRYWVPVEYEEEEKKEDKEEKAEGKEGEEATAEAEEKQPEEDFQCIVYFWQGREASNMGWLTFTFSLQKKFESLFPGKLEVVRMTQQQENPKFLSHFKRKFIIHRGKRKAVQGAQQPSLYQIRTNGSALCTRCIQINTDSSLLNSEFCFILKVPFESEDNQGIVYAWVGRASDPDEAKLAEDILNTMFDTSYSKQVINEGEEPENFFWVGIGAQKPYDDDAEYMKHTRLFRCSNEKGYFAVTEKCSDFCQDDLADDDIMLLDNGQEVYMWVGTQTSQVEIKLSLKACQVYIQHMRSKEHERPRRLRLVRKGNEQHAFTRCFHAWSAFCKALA
Assay: co-IP; endogenous proteins from DC lysates (cell lysis buffer, Cell Signaling Technology), Western blot; DCs untreated or transduced with control (VC) or Slit2N adenovirus, with or without HIV-1 BaL (1 h or overnight)

binding: binds
Substance: Roundabout receptor 1 (Robo1) (from UniProt Q9Y6N7 26-1651)
